One substance from PMC4673166 can be followed below.

Chains of the proteins cited; added tags and fusions are not shown.
UniProt P10417: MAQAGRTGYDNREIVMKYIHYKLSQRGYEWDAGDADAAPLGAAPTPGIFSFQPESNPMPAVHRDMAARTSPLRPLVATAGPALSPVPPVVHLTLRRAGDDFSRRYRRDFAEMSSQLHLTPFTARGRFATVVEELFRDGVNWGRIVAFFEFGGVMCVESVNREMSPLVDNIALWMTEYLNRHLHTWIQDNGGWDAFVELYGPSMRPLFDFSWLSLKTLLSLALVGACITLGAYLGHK
UniProt Q9JLV5: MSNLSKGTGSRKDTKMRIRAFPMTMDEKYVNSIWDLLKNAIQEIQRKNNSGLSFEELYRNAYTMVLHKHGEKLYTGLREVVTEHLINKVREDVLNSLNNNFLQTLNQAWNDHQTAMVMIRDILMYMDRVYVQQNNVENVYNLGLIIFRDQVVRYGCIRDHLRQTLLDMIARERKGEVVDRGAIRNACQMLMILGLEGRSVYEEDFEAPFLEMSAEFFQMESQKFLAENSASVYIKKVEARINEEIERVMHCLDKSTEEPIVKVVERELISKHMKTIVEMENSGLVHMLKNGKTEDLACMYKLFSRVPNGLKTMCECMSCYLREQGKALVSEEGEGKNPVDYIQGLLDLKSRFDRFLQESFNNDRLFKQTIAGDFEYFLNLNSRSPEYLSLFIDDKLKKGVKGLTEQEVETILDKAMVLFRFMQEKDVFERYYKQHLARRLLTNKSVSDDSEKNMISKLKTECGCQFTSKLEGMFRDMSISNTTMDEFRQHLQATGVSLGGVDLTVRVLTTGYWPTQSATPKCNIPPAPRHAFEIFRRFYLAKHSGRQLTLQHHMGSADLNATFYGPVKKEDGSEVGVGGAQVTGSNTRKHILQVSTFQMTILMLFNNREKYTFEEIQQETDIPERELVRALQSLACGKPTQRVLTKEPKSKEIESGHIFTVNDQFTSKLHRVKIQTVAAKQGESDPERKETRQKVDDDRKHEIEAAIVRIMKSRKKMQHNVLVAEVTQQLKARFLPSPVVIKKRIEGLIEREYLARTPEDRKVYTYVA

No constants are given. Whether binding was seen depends on the method and setting. Binding seen in cells or lysates may run through a third protein. Some results given as binding are weak or reduced against the parent protein; the word gives no strength.

In the assay the target is wt-Bcl-2 tagged with GST (UniProt P10417). Briefly: co-IP; lysates of SK1 cells transfected with GST-tagged bcl-2 constructs and treated with GO6976; immunoprecipitated with anti-GST antibody, immunoblotted with anti-Keap1 or anti-Cul3 antibody. A general note: Immunoblotting shows a protein as a band on a membrane.

For Cul3 (from UniProt Q9JLV5 1-768), the binding entry is reported as “binds”.
